At least one compound was matched to its structure with a doubt left.
System: C2C12 myotubes
Assay: miR-182 in media exosomes released from C2C12 myotubes after Dex
Type: cell-based, Mouse
Procedure: Fresh differentiation media containing 100 nM Dex or vehicle was added to myotubes for 6 h. Afterwards, RNA was prepared from isolated media exosomes and miR-182, along U6 controls, was measured.
One mechanism by which microRNAs are protected from degradation is through incorporation into protective exosomes. This has led some to propose that the relative abundance patterns of microRNAs in various tissues and fluids as well as exosomes and other microvesicles are a reflection of underlying pathophysiological processes. Dex administration enhances the exosomal packaging and release of two atrophy-related microRNAs (miR-1 and miR-23a) into the media of C2C12 myotubes. This led us to test whether miR-182 is incorporated into exosomes that are released from myotubes. The amount of miR-182 in exosomes, normalized to U6 small nuclear RNA, is increased 95% in exosomes following Dex treatment to myotubes (FIG. 4). […]
To quantify exosomal microRNA, exosome-associated RNA, including microRNA, was isolated using a urine exosome RNA isolation kit (Norgen Biotek, Thorolod, ON, Canada) according to the manufacturer's instructions for isolating RNA from extracellular fluids. Subsequent quantitative PCR (qPCR) was performed.

C[C@@H]1C[C@H]2[C@@H]3CCC4=CC(=O)C=C[C@]4(C)[C@@]3(F)[C@@H](O)C[C@]2(C)[C@@]1(O)C(=O)CO [Dexamethasone, dexamethasone]
abundance of miR-182 in exosomes isolated from media (in words): increased

Reference: US20140309280A1, “ASSAYS FOR MICRO-RNA-182 AS A BIOMARKER FOR MUSCLE ATROPHY AND THERAPEUTIC APPLICATIONS” (EMORY UNIVERSITY, priority 2013, published 2014)
